Measurements published in patent US20110105733A1 (Ablynx, published 2011).
Where a chain is given by its changes, count along the chain named. These are yes or no findings as the source states them, for the method shown. Some results given as binding are weak or reduced against the parent protein; the word gives no strength. Each block holds one binder with its values, some of them ahead of it.

By UniProt entry, the sequences of proteins in these tests, tags left out. Where a name states a change or a piece, a line headed by the entry shows the natural chain unless it says otherwise. Residues count along the entry.
UniProt P46531, residues 19-526: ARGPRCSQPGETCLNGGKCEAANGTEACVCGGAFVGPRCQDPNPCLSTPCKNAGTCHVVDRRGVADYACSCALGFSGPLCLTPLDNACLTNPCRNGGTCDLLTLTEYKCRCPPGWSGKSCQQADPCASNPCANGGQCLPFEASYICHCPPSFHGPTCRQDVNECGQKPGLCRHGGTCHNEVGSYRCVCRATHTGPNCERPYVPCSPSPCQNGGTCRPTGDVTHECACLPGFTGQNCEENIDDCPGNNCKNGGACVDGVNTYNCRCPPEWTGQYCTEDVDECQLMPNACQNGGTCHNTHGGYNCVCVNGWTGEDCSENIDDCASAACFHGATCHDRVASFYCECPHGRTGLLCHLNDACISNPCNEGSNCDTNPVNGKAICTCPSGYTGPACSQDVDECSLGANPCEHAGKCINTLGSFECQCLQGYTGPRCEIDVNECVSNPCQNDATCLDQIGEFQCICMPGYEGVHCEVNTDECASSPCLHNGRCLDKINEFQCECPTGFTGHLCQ
UniProt Q63722, residues 34-1067: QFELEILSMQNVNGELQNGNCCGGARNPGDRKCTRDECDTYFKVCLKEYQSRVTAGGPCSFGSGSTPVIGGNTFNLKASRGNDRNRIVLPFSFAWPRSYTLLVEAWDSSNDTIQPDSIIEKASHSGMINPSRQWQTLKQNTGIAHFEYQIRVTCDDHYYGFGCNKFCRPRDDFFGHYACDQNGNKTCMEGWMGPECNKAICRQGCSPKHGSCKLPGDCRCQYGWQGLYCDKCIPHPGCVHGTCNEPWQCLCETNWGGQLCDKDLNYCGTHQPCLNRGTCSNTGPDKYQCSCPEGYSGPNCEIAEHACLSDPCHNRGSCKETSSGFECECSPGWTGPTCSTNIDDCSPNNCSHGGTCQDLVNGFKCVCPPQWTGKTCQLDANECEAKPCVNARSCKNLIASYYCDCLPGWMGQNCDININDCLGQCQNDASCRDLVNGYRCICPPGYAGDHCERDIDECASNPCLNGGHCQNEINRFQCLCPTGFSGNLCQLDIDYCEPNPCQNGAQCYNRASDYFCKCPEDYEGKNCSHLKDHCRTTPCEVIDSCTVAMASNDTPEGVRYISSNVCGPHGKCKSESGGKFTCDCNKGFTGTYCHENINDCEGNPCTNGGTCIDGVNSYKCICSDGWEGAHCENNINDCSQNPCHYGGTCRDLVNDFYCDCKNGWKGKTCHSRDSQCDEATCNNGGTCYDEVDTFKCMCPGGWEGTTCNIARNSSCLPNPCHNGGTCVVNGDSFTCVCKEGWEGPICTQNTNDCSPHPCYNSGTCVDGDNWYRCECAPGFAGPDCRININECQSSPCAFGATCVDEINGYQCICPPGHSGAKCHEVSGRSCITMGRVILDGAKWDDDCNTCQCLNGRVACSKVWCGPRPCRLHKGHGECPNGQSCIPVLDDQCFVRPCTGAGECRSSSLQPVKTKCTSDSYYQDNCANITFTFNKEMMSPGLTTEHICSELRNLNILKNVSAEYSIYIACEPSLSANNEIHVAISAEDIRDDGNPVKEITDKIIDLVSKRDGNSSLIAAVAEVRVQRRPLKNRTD

How the values were obtained:
[1] = molecular target: recombinant human Notch-1/Fc Chimera (R&D Systems Cat No 3647-TK) (human) (UniProt P46531); assay: ELISA: human Notch-1/Fc coated at 2 ug/mL, Nanobody series, detection by mouse anti-Myc tag and DAMPO, OD 490 nm
[2] = molecular target: recombinant human Notch-1/Fc Chimera (R&D Systems Cat No 3647-TK) (human) (UniProt P46531); assay: ELISA on immobilised human Notch-1, 25 pM to 2000 nM Nanobody, anti-VHH detection
[3] = molecular target: recombinant human Notch-1/Fc Chimera (R&D Systems Cat No 3647-TK) (human) (UniProt P46531); assay: ELISA: human Notch-1 coated at 2 ug/mL, Nanobody series 25 pM-2000 nM, detection by rabbit anti-VHH and DAMPO, OD 490 nm
[4] = molecular target: rat Jagged-1 (rrJagged-1, R&D Systems Cat #599-JG) (rat) (UniProt Q63722); assay: ELISA on coated rrJagged-1 (legend of FIG. 2)
[5] = molecular target: rat Jagged-1 (rrJagged-1, R&D Systems Cat #599-JG) (rat) (UniProt Q63722); assay: summary of the ELISA binding and competition assays
[6] = molecular target: rat Jagged-1 (rrJagged-1, R&D Systems Cat #599-JG) (rat) (UniProt Q63722); assay: ELISA, 2 ug/ml rrJagged-1 coated, 1-1000 nM Nanobody, anti-myc detection
[7] = molecular target: rat Jagged-1 (rrJagged-1, R&D Systems Cat #599-JG) (rat) (UniProt Q63722); assay: ELISA: rat Jagged-1 (rrJagged-1) coated at 2 ug/mL, Nanobody series, detection by mouse anti-Myc tag and DAMPO, OD 490 nm
[8] = molecular target: biotinylated rrJagged-1 (rat) (UniProt Q63722); assay: competition ELISA: rhNotch-1/hFc coated at 5 ug/mL, Nanobody series mixed with 0.3 ug/mL biotinylated rrJagged-1, detection by streptavidin-PO, OD 490 nm; blocked partner: Notch-1/hFc
[9] = molecular target: T1, human Notch-3 (human, UniProt Q9UM47 40-467, limits assumed); assay: ELISA on immobilised human Notch-3, 25 pM to 2000 nM Nanobody, anti-VHH detection
T1 construct: Construct not described
T1 sequence (looked up): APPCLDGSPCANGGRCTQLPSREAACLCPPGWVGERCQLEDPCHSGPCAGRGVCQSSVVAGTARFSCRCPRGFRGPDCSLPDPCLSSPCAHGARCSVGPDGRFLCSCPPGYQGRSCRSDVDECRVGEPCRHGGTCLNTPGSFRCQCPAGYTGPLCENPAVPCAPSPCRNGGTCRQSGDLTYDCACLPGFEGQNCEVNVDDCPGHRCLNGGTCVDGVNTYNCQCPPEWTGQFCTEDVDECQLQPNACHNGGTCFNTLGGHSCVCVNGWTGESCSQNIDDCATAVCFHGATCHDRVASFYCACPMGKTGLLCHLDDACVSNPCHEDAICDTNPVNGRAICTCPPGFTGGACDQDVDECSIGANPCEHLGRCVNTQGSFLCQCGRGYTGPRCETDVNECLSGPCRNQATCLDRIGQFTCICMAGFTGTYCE

[10] = molecular target: T1, human Notch-3; assay: ELISA: human Notch-3 coated at 2 ug/mL, Nanobody series 25 pM-2000 nM, detection by rabbit anti-VHH and DAMPO, OD 490 nm
Method: After washing, the plate was blocked using 4% Marvel skimmed milk in PBS for 30 minutes on shaker. A concentration series of the Nanobodies in Table B-5 (25 pM to 2000 nM) was added in 100 microliter 2% Marvell/PBS and incubated for 1 h on shaker. After washing the Nanobodies were detected with 100 microliter 1:2500 R-anti-VHH (1:2500) in 2% Marvell/PBS and 100 microliter 1:5000 DAMPO in 2% Marvell/PBS for 1 h on shaker. PO was detected with 100 microliter OPD and stopped with 50 microliter H2SO4. Quantification was performed at 490 nm in a plate reader.

binding [1]: binds
B1: 180B1 (VHH)
VHH: EVQLVESGGDLVQPGGSLRLSCAASGTVFSNNDMGWSRQAPGKERELVASFTSGGNTVYADAAKGRFTISRDNSKNTVYLEMNSLKPDDTAVYYCRVVDLLRGKLYWGQGTQVTVSS

binding [1]: binds
B2: 180B3 (VHH)
VHH: B1 VHH

binding [1]: binds
B3: 180F10 (VHH)
VHH: B1 VHH with G26A, N32S, F51I, S53T, G54D, V58L, T68A, S70Y

binding [2]: binds
binding [1]: binds
binding [3]: binds
B4: 180F8 (VHH)
VHH: B1 VHH with A23T, A24T, N31I, E44G, F51I, T52S, G54E, N56T, V58I, L100P
notes: Nanobody against human Notch-1

binding [1]: binds
B5: 180C1 (VHH)
VHH: B1 VHH with G26R, N31I, N32S, F51I, T52S, G54D, G55N, N56Y, L100P

binding [1]: binds
B6: 180A4 (VHH)
VHH: EVQLVESGGGLVQPGGSLRLSCAASGRTSSPIAMGWFRQAPGKEREFVSGITWSGAYTHYANSVKGRFTISRDSAKNTVYLQMNSLKPEDTAVYYCTTATNSTTGYDYWGQGTQVTVSS

binding [1]: binds
B7: 180F4 (VHH)
VHH: EVQLVESGGGLVQAGDSLRLSCAVSGGSFSSYTMGWVRQAPGKEREAVASIWRSGGNTYYADSVKGRFTVSRDNAKHTVYLQMNSLKPEDTAVYYCAAASFAPGSRGYDYWGQGTQVTVSS

binding [4]: binds
binding [5]: binds
binding [6]: binds
binding [7]: binds
binding [8]: binds
B8: 178C4 (VHH, not shown: small tags and cut ends)
VHH: EVQLVESGGGLVQAGGSLRLSCAASGFTFDDYAIGWFRQAPGKEREGVSCMRGRDGSTYYADSVNGRFTISSDNAKNTVYLQMNSLKPEDTAVYYCAAHTDFACYIGYYSDYDPHDYWGQGTQVTVSS

binding [9]: binds
binding [10]: binds
B9: 50C4 (VHH)
VHH: EVQLVESGGDLVQPGGSLRLSCAASGFTFSTYYMSWVRQAPGKGLEWVSGIYSDGSNTYYADSVKGRFTISRDNAKNTLYLQMNSLKSEDTAVYYCTRPVVVAGSPVSYEYDYIGQGTQVTVSS
notes: Nanobody against human Notch-3

binding [9]: binds
binding [10]: binds
B10: 50H9 (VHH)
VHH: B9 VHH
notes: as for B9

binding [4]: binds
binding [5]: binds
binding [6]: binds
binding [7]: binds
B11: 178A7 (VHH)
VHH: EVQLVESGGGLVQPGGSLRLSCATSGVIFSTAAMGWYRQAPGKSRVLVARMFSDGRTIYAESVKRRFTISRDNAKNTVYLQMNSLEPEDTAVYYCNALQFGAVYWGQGTQVTVSS
notes: Nanobody against rat Jagged-1; not shown: C-terminal c-myc tag and His6 tag coded by vector pAX50

binding [4]: binds
binding [5]: binds
binding [6]: binds
binding [7]: binds
B12: 178C11 (VHH, not shown: small tags and cut ends)
VHH: B11 VHH
